Measured values published in patent US20210029995A1, “Use of Volatile Organic Compounds as Pesticides” (Certis Europe B.V., priority 2018, published 2021).

Tested on: H. bacteriophora
Details: 20 μl VOC, checked after 24 hr, sealed Petri dish
Experimental: Authenticated M. brunneum VOCs, along with other selected VOCs, were screened for nematicidal activity against S. feltiae and H. bacteriophora. […] Each Petri dish (90 mm) contained 20 ml of the water agar medium. The inoculated plates were kept in darkness for 3 hr at room temperature to acclimatize. The plates were then exposed to 20 μl of the VOC dispensed from a 8 mm paper disc (Whatman™, 0.34 mm thickness) positioned on a 25×25 mm glass coverslip placed in the centre of the Petri dish lid (FIG. 1A). The plates were sealed with a double layer of Parafilm and were kept in the dark at 21° C. and checked after 24 hr. The number of live and dead nematodes were counted with the aid of a stereo binocular microscope (30×).
The deposition was predetermined using bacterial cultures highly sensitive to these VOCs. The edge of the circular zone of inhibition delineated the area of activity.
Mean of mortality was calculated from the total number of alive and dead individuals across all circles. There were five replicates per treatment and the whole experiment was repeated twice.

SMILES: CC(C)CC(=O)O [Isovaleric acid]
- Mortality (%) (Mean ± SE) H. bacteriophora (Hb): 13 ± 2.8%
